Experimental data published in US10793885B2, “Compositions and methods for making noscapine and synthesis intermediates thereof” (priority 2013, dated 2020).
At least one compound was matched to its structure with a doubt left.

Biological target: T1, NOS (Papaver somniferum, UniProt I3PLR3)
T1 construct: His-tag (pRSETA leader) (N); made in house; host or cells: Escherichia coli Rosetta (DE3) pLysS
T1 sequence (I3PLR3 1-348): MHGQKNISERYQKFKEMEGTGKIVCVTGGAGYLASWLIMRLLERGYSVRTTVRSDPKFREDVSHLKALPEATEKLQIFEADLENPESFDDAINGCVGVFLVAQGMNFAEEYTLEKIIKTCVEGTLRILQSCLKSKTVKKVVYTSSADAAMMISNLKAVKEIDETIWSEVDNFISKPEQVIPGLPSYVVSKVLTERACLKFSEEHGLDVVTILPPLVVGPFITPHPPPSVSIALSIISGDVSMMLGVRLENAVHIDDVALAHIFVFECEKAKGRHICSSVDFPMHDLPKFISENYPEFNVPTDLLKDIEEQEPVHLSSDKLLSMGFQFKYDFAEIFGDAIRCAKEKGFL
Format: biochemical, opium poppy (Papaver somniferum)
Details: cofactor of NOS for the conversion of narcotine hemiacetal to noscapine
Description: The full-length cDNA sequence of CL1327Contig1 (see: Example 2) was cloned into vector pRSETA in-frame with an N-terminal His-tag and expressed in E. coli as follows. The NOS coding region was amplified from opium poppy stem cDNA using the following primer set: 5′-[…]-3′ (SEQ ID NO: 601) and 5′-[…]-3′ (SEQ ID NO: 602). The NOS cDNA was cloned into the expression vector pRSETA (Invitrogen) at the SacI and KpnI restriction sites in frame with an N-terminal His-tag sequence. The expression construct was transformed into Escherichia coli strain Rosetta (DE3) pLysS (EMD Chemicals, Darmstadt, Germany). Expression of the recombinant gene was induced overnight with 1 mM isopropyl β-D-thiogalactoside (IPTG) at room temperature. Cells were harvested by centrifugation and sonicated in a buffer containing 50 mM sodium phosphate, pH 7.0, 300 mM NaCl, and 10 mM β-mercaptoethanol. […] Protein concentration was determined by the Bradford assay (Bio-Rad, Hercules, Calif.) using bovine serum albumin as the standard.
The purified recombinant NOS enzyme (see: Example 4) was assayed using either narcotine hemiacetal as the substrate (in the presence of either NAD^+ or NADP^+ as cofactor) for dehydrogenase activity, or with noscapine as the substrate (in the presence of NADH or NADPH as the cofactor) for reductase activity. LC-MS/MS was used to identify and quantify product formation (FIG. 7). […]

| SMILES | kcat/Km |
| --- | --- |
| NC(=O)c1ccc[n+]([C@@H]2O[C@H](COP(=O)([O-])OP(=O)(O)OC[C@H]3O[C@@H](n4cnc5c(N)ncnc54)[C@H](OP(=O)(O)O)[C@@H]3O)[C@@H](O)[C@H]2O)c1 [NADP^+] | 1,380 M^−1 s^−1 |
| NC(=O)c1ccc[n+]([C@@H]2O[C@H](COP(=O)([O-])OP(=O)(O)OC[C@H]3O[C@@H](n4cnc5c(N)ncnc54)[C@H](O)[C@@H]3O)[C@@H](O)[C@H]2O)c1 [NAD^+] | 16,240 M^−1 s^−1 |
